Results: patent US20240116910A1, “Heterocycles as WIP1 Inhibitors” (PMV Pharmaceuticals, Inc., priority 2022, published 2024)

Chains of the proteins cited; added tags and fusions are not shown. Residues count along the entry.
UniProt O15297, whole entry: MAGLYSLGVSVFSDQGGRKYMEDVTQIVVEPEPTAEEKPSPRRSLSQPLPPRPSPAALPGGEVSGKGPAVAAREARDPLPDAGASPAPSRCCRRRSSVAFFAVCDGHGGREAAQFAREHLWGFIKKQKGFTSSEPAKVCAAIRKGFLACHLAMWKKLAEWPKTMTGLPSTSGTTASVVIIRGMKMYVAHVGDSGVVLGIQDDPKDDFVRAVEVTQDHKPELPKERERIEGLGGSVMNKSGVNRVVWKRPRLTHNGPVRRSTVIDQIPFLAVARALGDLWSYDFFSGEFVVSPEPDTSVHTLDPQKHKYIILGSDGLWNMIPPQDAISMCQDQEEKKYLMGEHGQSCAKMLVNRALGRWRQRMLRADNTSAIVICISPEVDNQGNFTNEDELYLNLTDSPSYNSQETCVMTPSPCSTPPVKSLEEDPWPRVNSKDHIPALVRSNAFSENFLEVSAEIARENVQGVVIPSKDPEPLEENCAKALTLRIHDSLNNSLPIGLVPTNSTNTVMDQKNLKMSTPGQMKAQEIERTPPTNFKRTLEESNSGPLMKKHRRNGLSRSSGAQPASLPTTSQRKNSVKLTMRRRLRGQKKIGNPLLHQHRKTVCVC
UniProt O15297, 2-420 limits assumed: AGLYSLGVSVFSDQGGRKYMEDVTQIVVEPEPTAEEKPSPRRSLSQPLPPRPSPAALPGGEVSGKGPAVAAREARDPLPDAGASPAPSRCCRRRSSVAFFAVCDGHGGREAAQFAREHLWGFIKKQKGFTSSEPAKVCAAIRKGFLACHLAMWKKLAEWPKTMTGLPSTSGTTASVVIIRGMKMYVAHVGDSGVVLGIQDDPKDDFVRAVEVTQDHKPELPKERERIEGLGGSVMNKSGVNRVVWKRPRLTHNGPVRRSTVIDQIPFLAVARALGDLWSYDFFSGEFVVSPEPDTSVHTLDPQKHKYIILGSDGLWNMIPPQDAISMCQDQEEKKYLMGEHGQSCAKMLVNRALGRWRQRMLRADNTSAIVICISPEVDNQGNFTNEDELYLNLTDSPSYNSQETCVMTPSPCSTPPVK

Key:
[1] = molecular target: recombinant His-tag Wip1(2-420) protein (amino acids #2-420) (Homo sapiens (Human), UniProt O15297); assay: Wip1(2-420) phosphatase enzyme FDP assay; details: read-out: WIP1 (Truncated 2-420) FDP Assay: IC50; fluorescein diphosphate (FDP) substrate, RT 2 hours, fluorescence Ex485/Em535
Procedure: (§1) The Human Wip1 (2-420, aa 2-420) or Wip1 full length (aa 1-605) DNA sequence was codon optimized and synthesized by Genscript for insect cell expression. The open reading frame of Wip1(2-420) with a N-terminal-His6 affinity tag followed by a TEV cleavage site was subcloned sites into the pFastBac1 expression vector. The recombinant bacmid DNA was transfected in Sf9 insect cells for baculovirus production. After 72 hours infection, the Sf9 cells were harvested by centrifugation and resuspended in lysis buffer containing 50 mM Tris/HCl, pH 8.0, 500 mM NaCl, 20% glycerol, Benzonase 0.5% CHAPS and Roche cOmplete™ EDTA free protease inhibitors. Cells were disrupted with microfluidizer and the debris was removed by centrifugation at 185,000 g for 1 hour. The supernatant was subjected to HisTrap FF for affinity purification. […]
(§2) Test compounds (252 mM stock in DMSO) were diluted 3 folds in series in DMSO and 1.2 μl per well were added into 384-well polypropylene black plates (Nunc). […] The plate was centrifuged at 1,200 rpm (Eppendorf 5810R Plate centrifuge) for 1 minute and fluorescence intensity (Ex485/Em535) was measured on Perkin Elmer Victor Reader. EC50 values were calculated using either Prism (GraphPad) or ActivityBase software (IDBS), The IC50 results are provided in Table M.

[2] = molecular target: recombinant His-tag Wip1 full length protein (amino acids #1-605) (Homo sapiens (Human), UniProt O15297); assay: Wip1 full length phosphatase enzyme FDP assay; details: read-out: WIP1 (Full-Length) FDP Assay: IC50; fluorescein diphosphate (FDP) substrate, RT 2 hours, fluorescence Ex485/Em535
Procedure: as §1, §2

CC[C@H](Nc1cc(Cl)cnc1C)c1ccc(C(=O)N[C@@H](CC2CCCC2)C(=O)N[C@@H]2CC2(F)F)s1 [Compound 47, (2S)-2-({5-[(1S)-1-[(5-chloro-2-methylpyridin-3-yl)amino]propyl]thiophen-2-yl}formamido)-3-cyclopentyl-N-[(1R)-2,2-difluorocyclopropyl]propanamide]
IC50 [1]: 6 nM
IC50 [2]: 8 nM

The match of structure and compound is tentative.
